In US10793614B2, “Antagonists of fish reproduction” (Yissum Research Development Company of the Hebrew …, priority 2014, dated 2020):
At least one peptide structure holds a part that was inferred or is arguable (an end, a ring closure or a residue). Numbered stars: 1 amine (or outer) side, 2 acyl side, 3 side chain; on linkers, the order of the positions; unused ones are H or OH. Square brackets hold non-standard residues; d marks the D form. Peptide text beside a SMILES is read from it. Suc = O=C(CCC(=O)[*:2])[*:1]; NMeV = CN[C@H](C(=O)O)C(C)C; βAla = NCCC(=O)O

What was measured:
Female tilapia fish = assay type: in vivo; conditions: diet 7.5 mg/kg feed, fed twice daily, female tilapia from age 105 days
Adult male Tilapia = experiment: In vivo growth of injected adult male tilapia; conditions: 500 μg/kg BW ip every 48 h for 2 weeks; day 21, seven days after end of treatment
Protocol: Adult male tilapia (BW 60 g) were injected ip with saline and 25% DMSO, SB2222000, or NKB antagonists Ant-6 (500 μg/kg BW every 48 h for 2 weeks, n=25 fish per group). Fish were weighed every 7 days.

Salmon tac3 receptor = experiment: CRE-Luc reporter assay in COS-7 cells transfected with salmon tac3r; assay type: cell-based; conditions: with wild-type NKB at 10^-8 M
Protocol: Similar to the in-vitro experiments performed in Example 2 in Tilapia and Zebrafish, the inhibition of NKB activity was tested in Salmon fish. Salmon tac3 receptor was cloned in pcDNA3.1 expression vector (Zeo-; Invitrogen) under the control of the CMV promoter. Transfection was carried out with FuGENE 6.0 reagent (Roche). The cells were serum starved for 36 h, stimulated with vehicle or various concentrations of either tilapia NKB for 6 h, and then harvested and analyzed. Lysates prepared from the harvested cells were assayed for both luciferase activity and β-galactosidase activity, which was used as an internal standard to normalize the luciferase activity directed by the test plasmid. Transfection experiments were performed in triplicate with three independently isolated sets. The concentrations of ligand used were from 1 nM to 1 μM. Treatments were performed in quadruplicate in three independent experiments. Each antagonist (NKB-ant 4 and NKB-ant 6) was added at different concentrations with a constant concentration of the wild-type NKB (10^−8M) that gave a response close to the ED50. The results were analyzed by Prism software, according to a non-linear regression one-site competition curve. When salmon tac3 was transfected, NKB increased the luciferase activity by 1.8 fold.

Question: Which “increase in body weight versus control fish” value (from here on “increase”) (Female tilapia fish) does the source give for `CSCC[C@H](NC(=O)[C@H](CC(C)C)NC(=O)CCNC(=O)[C@H](C(C)C)N(C)C(=O)[C@H](Cc1ccccc1)NC(=O)[C@H](CC(=O)O)NC(=O)CCC(=O)O)C(N)=O` [Ant-2, Succ-Asp-Phe-N(Me)Val-βAla-Leu-Met-NH2] (Suc-DF[NMeV][βAla]LM-NH2) here?
Answer: about 25%

Question: `CSCC[C@H](NC(=O)[C@H](CC(C)C)NC(=O)CCNC(=O)[C@H](C(C)C)N(C)C(=O)[C@H](Cc1ccccc1)NC(=O)[C@H](CO)NC(=O)[C@H](CC(=O)O)NC(=O)CCC(=O)O)C(N)=O` [Ant-3, Succ-Asp-Ser-Phe-N(Me)Val-βAla-Leu-Met-NH2] (Suc-DSF[NMeV][βAla]LM-NH2) was tested. Which “increase” value (Female tilapia fish) did it give?
Answer: about 25%

Question: How did the “growth (body weight)” value (Adult male Tilapia) turn out when `CSCC[C@H](NC(=O)[C@H](CC(C)C)NC(=O)CCNC(=O)[C@H](C(C)C)N(C)C(=O)[C@@H](Cc1c[nH]c2ccccc12)NC(=O)[C@H](CO)NC(=O)[C@H](CC(=O)O)NC(=O)CCC(=O)O)C(N)=O` [Ant-6, Succ-Asp-Ser-D-Trp-N(Me)Val-βAla-Leu-Met-NH2] (Suc-DS[dW][NMeV][βAla]LM-NH2) was run?
Answer: significant growth

Question: And the “increase” value (Female tilapia fish)?
Answer: about 25%

Question: And the “reduction of the NKB luciferase response by antagonist” value (Salmon tac3 receptor)?
Answer: approximately 60%
